PubChem BioAssay AID1508597, Cure First | 2020
Screen: 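Knock-downs altering ovarian cancer cell survival with or without PARP inhibitor rucaparib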 (primary screen). System: human ovarian carcinoma lines grown from tumours: OCI-P5x (papillary serous) and OCI-C5x (clear cell). Reagent: siRNA pool against human genes, 1.25 pmol siRNA per well. Duration: 72 h or 96 h, depending on the cell culture. Challenge: rucaparib 20 µM (about IC30) or vehicle, present until read-out. Read-out: 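Luminescent ATP-based viability assay read 72 or 96 h after transfection, depending on culture, given as normalised percent viability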. Reading the numbers: viability, normalised: higher = more viable cells remaining. Rule for the call: 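a well counts as a hit if its normalised viability is under 80 percent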. Calls: active = viability under 80%; inactive = viability 80% or more.
Here is an unselected part of about 2,100 reagents tested. 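Calls flag viability under 80% in either arm, not effects specific to rucaparib; the reference for percent is not stated.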 Not stated in the record: the 100% reference.

OXSM, rucaparib or vehicle Rucaparib, cell line OCI-C5x (clear cell), technical replicate 1 showed viability, normalised (%) = 56.4; active. OXSM, rucaparib or vehicle Rucaparib, cell line OCI-C5x (clear cell), technical replicate 2 gave viability, normalised (%) = 57.3; active. For OXSM, rucaparib or vehicle Rucaparib, cell line OCI-C5x (clear cell), technical replicate 3, the values are viability, normalised (%) = 60; active. OXSM, rucaparib or vehicle Rucaparib, cell line OCI-P5x (serous), technical replicate 1 gave viability, normalised (%) = 79.1; active. For OXSM, rucaparib or vehicle Rucaparib, cell line OCI-P5x (serous), technical replicate 2, the entry reads viability, normalised (%) = 59; active. OXSM, rucaparib or vehicle Rucaparib, cell line OCI-P5x (serous), technical replicate 3 gave viability, normalised (%) = 90.2; inactive.

OXSM, rucaparib or vehicle Vehicle, cell line OCI-C5x (clear cell), technical replicate 1 showed viability, normalised (%) = 59.8; active. For OXSM, rucaparib or vehicle Vehicle, cell line OCI-C5x (clear cell), technical replicate 2 the deposit lists viability, normalised (%) = 49.7; active. With OXSM, rucaparib or vehicle Vehicle, cell line OCI-C5x (clear cell), technical replicate 3 the deposit lists viability, normalised (%) = 58.7; active. With OXSM, rucaparib or vehicle Vehicle, cell line OCI-P5x (serous), technical replicate 1 the deposit lists viability, normalised (%) = 81.9; inactive. For OXSM, rucaparib or vehicle Vehicle, cell line OCI-P5x (serous), technical replicate 2, the entry reads viability, normalised (%) = 61.7; active. With OXSM, rucaparib or vehicle Vehicle, cell line OCI-P5x (serous), technical replicate 3, the entry reads viability, normalised (%) = 71; active.

PLK4, rucaparib or vehicle Rucaparib, cell line OCI-C5x (clear cell), technical replicate 1 gave viability, normalised (%) = 69.4; active. PLK4, rucaparib or vehicle Rucaparib, cell line OCI-C5x (clear cell), technical replicate 2 showed viability, normalised (%) = 23.5; active. PLK4, rucaparib or vehicle Rucaparib, cell line OCI-C5x (clear cell), technical replicate 3 showed viability, normalised (%) = 49.5; active. With PLK4, rucaparib or vehicle Rucaparib, cell line OCI-P5x (serous), technical replicate 1, the values are viability, normalised (%) = 69.9; active. PLK4, rucaparib or vehicle Rucaparib, cell line OCI-P5x (serous), technical replicate 2 gave viability, normalised (%) = 97.5; inactive. PLK4, rucaparib or vehicle Rucaparib, cell line OCI-P5x (serous), technical replicate 3 showed viability, normalised (%) = 47.4; active.

PLK4, rucaparib or vehicle Vehicle, cell line OCI-C5x (clear cell), technical replicate 1 scored viability, normalised (%) = 72.5; active. PLK4, rucaparib or vehicle Vehicle, cell line OCI-C5x (clear cell), technical replicate 2 gave viability, normalised (%) = 51.1; active. With PLK4, rucaparib or vehicle Vehicle, cell line OCI-C5x (clear cell), technical replicate 3, the entry reads viability, normalised (%) = 54.3; active. For PLK4, rucaparib or vehicle Vehicle, cell line OCI-P5x (serous), technical replicate 1 the deposit lists viability, normalised (%) = 80.7; inactive. With PLK4, rucaparib or vehicle Vehicle, cell line OCI-P5x (serous), technical replicate 2, the entry reads viability, normalised (%) = 78; active. PLK4, rucaparib or vehicle Vehicle, cell line OCI-P5x (serous), technical replicate 3 gave viability, normalised (%) = 70.9; active.

Sorted by “viability, normalised (%)” (ascending): 6 of the entries above
OXSM, rucaparib or vehicle Vehicle, cell line OCI-C5x (clear cell), technical replicate 2 → viability, normalised (%): 49.7; outcome: active
OXSM, rucaparib or vehicle Vehicle, cell line OCI-C5x (clear cell), technical replicate 3 → viability, normalised (%): 58.7; outcome: active
OXSM, rucaparib or vehicle Vehicle, cell line OCI-C5x (clear cell), technical replicate 1 → viability, normalised (%): 59.8; outcome: active
OXSM, rucaparib or vehicle Vehicle, cell line OCI-P5x (serous), technical replicate 2 → viability, normalised (%): 61.7; outcome: active
OXSM, rucaparib or vehicle Vehicle, cell line OCI-P5x (serous), technical replicate 1 → viability, normalised (%): 81.9; outcome: inactive
OXSM, rucaparib or vehicle Rucaparib, cell line OCI-P5x (serous), technical replicate 3 → viability, normalised (%): 90.2; outcome: inactive

The list goes on.
With PALS2, rucaparib or vehicle Rucaparib, cell line OCI-C5x (clear cell), technical replicate 1, the values are viability, normalised (%) = 36.4; active. With PALS2, rucaparib or vehicle Rucaparib, cell line OCI-C5x (clear cell), technical replicate 2, the values are viability, normalised (%) = 40.6; active. PALS2, rucaparib or vehicle Rucaparib, cell line OCI-C5x (clear cell), technical replicate 3 gave viability, normalised (%) = 44.8; active. For PALS2, rucaparib or vehicle Rucaparib, cell line OCI-P5x (serous), technical replicate 1, the values are viability, normalised (%) = 48.8; active. PALS2, rucaparib or vehicle Rucaparib, cell line OCI-P5x (serous), technical replicate 2 scored viability, normalised (%) = 73.9; active. PALS2, rucaparib or vehicle Rucaparib, cell line OCI-P5x (serous), technical replicate 3 showed viability, normalised (%) = 50; active.

For PALS2, rucaparib or vehicle Vehicle, cell line OCI-C5x (clear cell), technical replicate 1, the values are viability, normalised (%) = 56.2; active. For PALS2, rucaparib or vehicle Vehicle, cell line OCI-C5x (clear cell), technical replicate 2 the deposit lists viability, normalised (%) = 41.1; active. PALS2, rucaparib or vehicle Vehicle, cell line OCI-C5x (clear cell), technical replicate 3 scored viability, normalised (%) = 46.9; active. With PALS2, rucaparib or vehicle Vehicle, cell line OCI-P5x (serous), technical replicate 1 the deposit lists viability, normalised (%) = 69.5; active. PALS2, rucaparib or vehicle Vehicle, cell line OCI-P5x (serous), technical replicate 2 scored viability, normalised (%) = 51.4; active. PALS2, rucaparib or vehicle Vehicle, cell line OCI-P5x (serous), technical replicate 3 scored viability, normalised (%) = 49.3; active.
